Results reported in PubChem BioAssay AID1347076 (National Center for Advancing Translational Sciences (NCATS), 2019).
Values joined by “and” are separate entries in the source; they are usually repeats but may differ in a detail not shown here. Equal entries are not always repeated. In all, about 400,000 compounds went through this assay and about 13,000 (3.2%) were called active. Inconclusive means that the source gave no clear call. Such entries were picked first, then a sample of the others. Calls come from the whole dose curve; as a rule, active = well fitted cell-killing curve with a large enough effect; inconclusive = small, poorly fitted or top-dose-only effect, or effect the other way; inactive = flat fitted curve, though single readings scatter. A potency beside an inconclusive call is a rough fit, not a confirmed value.

assay: qHTS assay for MDR1-selective chemotherapeutics: Primary screen using the drug-selected MDR subline cells KB-V1; details: KB-V1 MDR cells viability, CellTiter-Glo, 72 h; activity change, negative = cytotoxicity: at 46.1 µM (top of the series); note: nearly all actives have a fitted effect of over 60% in size
Procedure, shortened: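 KB-V1 cells (P-gp-expressing MDR subline of KB-3-1) in phenol-red-free DMEM with 10% FBS were exposed to library compounds over a concentration series for 72 h at 37 degrees C. Viability read by CellTiter-Glo luminescence; concentration-effect curves fitted after normalization.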
% is set by controls: 0 for no effect and ±100 for the full control effect; potency is the fitted concentration of half-maximal effect.

SMILES	Potency	activity change, negative = cytotoxicity
O=C(Nc1ccc(Cl)c(C(F)(F)F)c1)[C@@H]1CC=C[C@@H]2CCN(Cc3ccc(Cl)c(Cl)c3)C(=O)[C@@H]21	inconclusive: 29.1 µM [cytotoxic, partial curve, poor fit] and inconclusive: 20.6 µM [cytotoxic, single point]	
Cc1ccc2nc(SCC(=O)N3CCCc4ccccc43)nc(=O)n2c1	active: 18.4 µM	
O=C(Nc1cccc2ccccc12)c1cn(-c2ccccc2)nc1-c1cccs1	inconclusive: 11.6 µM [cytotoxic, partial curve]	
O=C(NC1CCCC1)C(C1CC1)n1c(-c2ccnc3ccccc23)nc2ccccc21 (stereo not given)	inconclusive: 5.17 µM [cytotoxic, partial curve, poor fit]	
COc1ccccc1N(CC(=O)Nc1ccc(Cc2ccncc2)cc1)S(=O)(=O)c1ccccc1		inactive: -3.92%
COc1ccccc1CN(Cc1nc2ccccc2c(=O)[nH]1)S(=O)(=O)c1ccc(C)cc1		inactive: -20.4%
Cc1cccc(N2CCN(C(C(=O)NCc3ccccc3)c3ccco3)CC2)c1C (stereo not given)	inconclusive: 18.4 µM [cytotoxic, single point]	
CCOC(=O)Nc1nc2ccc(Cn3cccc3)cc2[nH]1	active: 1.16 µM	
COc1ccc(-c2ccc(CCC(=O)O)n2-c2cc(OC)ccc2OC)cc1	inconclusive: 18.4 µM [cytotoxic, single point]	
Cc1noc(C)c1NC(=O)NC(c1ccccc1)c1ccccc1		inactive: 0.844%
Cc1ccc(N2CC(C(=O)N/N=C/c3sccc3C)CC2=O)cc1 (stereo not given)	inconclusive: 20.6 µM [cytotoxic, single point]	
COc1ccc(/C=C/C(=O)c2ccc(C)c([N+](=O)[O-])c2)cc1O	inconclusive: 20.6 µM [cytotoxic, single point]	
CCOc1ccc(Nc2nc(NCC3CCCO3)c3ccccc3n2)cc1 (stereo not given)	inconclusive: 32.6 µM [cytotoxic, single point]	
O=C(NNc1ccccc1)c1ccccc1	inconclusive: 20.6 µM [cytotoxic, single point]	
CS(=O)(=O)N(CCc1ccccc1)CC(=O)Nc1ccccc1	inconclusive: 20.6 µM [cytotoxic, partial curve]	
Cc1noc2ncnc(Oc3cc(Cl)ccc3Cl)c12		inactive: -6.33%
O=C(COC(=O)C1CCC1)Nc1ccc(Cl)cn1	inconclusive: 29.1 µM [rising, single point]	
Cc1ccc(/C=N/NC(=O)CSc2nc3ccccc3n2Cc2ccccc2)o1	inconclusive: 29.1 µM [cytotoxic, single point]	
CCN(C(=O)COC(=O)c1c(C)nsc1NC)c1ccccc1	inconclusive: 7.31 µM [cytotoxic, partial curve, poor fit]	
CCC1=Nc2cc(C(=O)NCc3ccco3)ccc2Sc2ccccc21	inconclusive: 18.4 µM [cytotoxic, single point]	
O=C1CC(c2ccccc2)CC2=C1C1(CCCC1)N=C(Nc1nc3ccccc3o1)N2 (stereo not given)	inactive	
N=C1S/C(=C\c2ccccc2F)C(=O)N1c1ccc(F)cc1		inactive: 18.2%
Cc1cc(Cn2nnc3ccccc32)c(O)c(C(C)(C)C)c1		inactive: -0.352%

Eleven successive records from above:
SMILES	Potency	activity change, negative = cytotoxicity
COc1ccccc1N(CC(=O)Nc1ccc(Cc2ccncc2)cc1)S(=O)(=O)c1ccccc1		inactive: -3.92%
COc1ccccc1CN(Cc1nc2ccccc2c(=O)[nH]1)S(=O)(=O)c1ccc(C)cc1		inactive: -20.4%
Cc1cccc(N2CCN(C(C(=O)NCc3ccccc3)c3ccco3)CC2)c1C (stereo not given)	inconclusive: 18.4 µM [cytotoxic, single point]	
CCOC(=O)Nc1nc2ccc(Cn3cccc3)cc2[nH]1	active: 1.16 µM	
COc1ccc(-c2ccc(CCC(=O)O)n2-c2cc(OC)ccc2OC)cc1	inconclusive: 18.4 µM [cytotoxic, single point]	
Cc1noc(C)c1NC(=O)NC(c1ccccc1)c1ccccc1		inactive: 0.844%
Cc1ccc(N2CC(C(=O)N/N=C/c3sccc3C)CC2=O)cc1 (stereo not given)	inconclusive: 20.6 µM [cytotoxic, single point]	
COc1ccc(/C=C/C(=O)c2ccc(C)c([N+](=O)[O-])c2)cc1O	inconclusive: 20.6 µM [cytotoxic, single point]	
CCOc1ccc(Nc2nc(NCC3CCCO3)c3ccccc3n2)cc1 (stereo not given)	inconclusive: 32.6 µM [cytotoxic, single point]	
O=C(NNc1ccccc1)c1ccccc1	inconclusive: 20.6 µM [cytotoxic, single point]	
CS(=O)(=O)N(CCc1ccccc1)CC(=O)Nc1ccccc1	inconclusive: 20.6 µM [cytotoxic, partial curve]	

The list goes on:

SMILES	Potency	activity change, negative = cytotoxicity
O=C(Nc1ccnn1C1CCN(C(=O)c2cc(Cl)ccc2F)CC1)C1CCOC1 (stereo not given)	inconclusive: 1.3 µM [cytotoxic, full curve]	
CCOc1cc(N2CCOCC2)c(OCC)cc1NC(=O)CCC1CCCC1	inconclusive: 20.6 µM [cytotoxic, single point]	
Cc1cc(OCC(=O)OCC(=O)N2CC(C)CC(C)C2)ccc1Cl (stereo not given)	inconclusive: 29.1 µM [rising, single point]	
O=C(COc1ccc(Cl)c2cccnc12)N1CCOCC1	inconclusive: 25.9 µM [rising, single point]	
Cc1ccc(C)n1-c1ccc(C(=O)NC2CCN(Cc3ccccc3)CC2)cc1	active: 2.31 µM	
CC(C)=C1SC(N2CCN(c3ccc(C)cc3)CC2)=NC1=O	inconclusive: 18.4 µM [cytotoxic, single point]	
O=C(CSc1nnnn1C1CCCC1)Nc1ccccc1N1CCOCC1	inconclusive: 4.61 µM [cytotoxic, full curve]	
CCCCCC1(C(=O)OCC)CC(CSC(=N)N)OC1=O (stereo not given)		inactive: 3.17%
COc1cccc(C(=O)OCC(=O)Nc2cc(C)on2)c1OC		inactive: -4.37%
CC(C)(C)OC(=O)[C@H](Cc1ccccc1)NC(=O)c1nc[nH]c1C(=O)N[C@@H](Cc1ccccc1)C(=O)OC(C)(C)C	inconclusive: 16.4 µM [cytotoxic, single point]	
O=CN1CCN(C(=O)c2ccccc2Cl)CC1	inconclusive: 4.61 µM [rising, partial curve, poor fit]	
Nc1ncnc2c1ncn2[C@@H]1O[C@H](C(=O)NCCc2ccc(F)cc2)[C@@H](O)[C@H]1O		inactive: 9.32%
COCCNCc1cc(C)n(-c2cc(S(=O)(=O)N3CCOCC3)ccc2N2CCCC2)c1C		inactive: -16.8%
COC(=O)c1c(C)oc2ccc(NS(=O)(=O)c3cccs3)cc12	inconclusive: 10 µM [cytotoxic, partial curve]	
COCCCN(C(=O)c1ccco1)c1nc(-c2cc(OC)ccc2OC)cs1	active: 1.84 µM	
COC(=O)c1cc(OC)c(OC)cc1NC(=O)c1ccccc1C		inactive: 3.21%
COc1cc(C(=O)Nc2nc3c(s2)Cc2c(Br)ccc(OC)c2-3)cc(OC)c1OC		inactive: -7.39%
Cc1cc(Cl)ccc1NC(=S)N(CCCN1CCOCC1)Cc1cccs1	inconclusive: 6.51 µM [cytotoxic, full curve]	
Cc1nn2c(COc3ccc(NC(=O)c4ccccc4Cl)cc3)nnc2c2ccccc12	inconclusive: 25.9 µM [cytotoxic, partial curve, poor fit]	
Cc1ccnc2c(Cl)c(Cl)ccc12		inactive: 6.5%
Cc1ccc(C(=O)OCC(=O)N2CC(C)CC(C)C2)cc1S(=O)(=O)N1CCCCC1 (stereo not given)	inconclusive: 29.1 µM [cytotoxic, single point]	
CCN(CC)S(=O)(=O)c1ccc(NC(=O)CCNC(=O)c2ccco2)cc1	inconclusive: 29.1 µM [rising, single point]	
